PubChem BioAssay AID652272 | Drosophila RNAi Screening Center, 2013
Screen: 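Genome-wide knock-down search for components of Hedgehog signalling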 (primary screen). Cells: Drosophila clone 8 (Cl8) cells. Reagents: long dsRNA against Drosophila genes. Read-out: 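Firefly light from a Hedgehog-responsive ptc promoter reporter and Renilla reference light, both read on a plate reader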. Scale: firefly Hh reporter signal: higher = more ptc reporter light; Renilla reference signal: higher = more Renilla control light. Call rule: 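Called a hit if the two-replicate mean z-score lies below -2 or above +3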. Meaning of the calls: active = hit: reporter lowered or raised; inactive = not a hit.
The deposit covers about 21,000 reagents; below is a random part of those with a known target gene and a result. In the full data, 503 (2.4%) were called active. 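Raw plate light values, not normalised; calls rest on replicate z-scores that were not deposited; hits include reporter decreases as well as increases.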 Names joined by + are all predicted targets of the reagent. Not stated in the record: the amount of reagent, the time to read-out.

The opening 6 records, ahead of the listing:
target gene	PubChem SID	firefly Hh reporter signal, replicate 1	firefly Hh reporter signal, replicate 2	firefly Hh reporter signal, replicate 3	Renilla reference signal, replicate 1	Renilla reference signal, replicate 2	activity call
Ncc69 (GeneID 39410)	SID104190204	1.18e5	84251		4521	3697	inactive
Ncc69 (GeneID 39410)	SID104190205	39824	63640	44947	6292	928	inactive
Nepl21 (GeneID 43413)	SID104193925	73746	1.16e5		1162	2533	inactive
Als2 (GeneID 40410)	SID104191598	97122	72097		3883	3058	inactive
Kif19A (GeneID 41717)	SID104196368	4.09e5	67584		2609	2609	inactive
CG34330 (GeneID 2768869)	SID104199835	1.14e5	2.76e5		2384	11510	inactive

Main list, from the first entry:
target gene	PubChem SID	firefly Hh reporter signal, replicate 1	firefly Hh reporter signal, replicate 2	firefly Hh reporter signal, replicate 3	Renilla reference signal, replicate 1	Renilla reference signal, replicate 2	activity call
Ncc69 (GeneID 39410)	SID104190204	1.18e5	84251		4521	3697	inactive
Ncc69 (GeneID 39410)	SID104190205	39824	63640	44947	6292	928	inactive
Nepl21 (GeneID 43413)	SID104193925	73746	1.16e5		1162	2533	inactive
Als2 (GeneID 40410)	SID104191598	97122	72097		3883	3058	inactive
Kif19A (GeneID 41717)	SID104196368	4.09e5	67584		2609	2609	inactive
CG34330 (GeneID 2768869)	SID104199835	1.14e5	2.76e5		2384	11510	inactive
CG11123 (GeneID 35664)	SID104185832	1.08e5	48848		2322	4083	inactive
CG2157 (GeneID 32018)	SID104199628	72832	1.90e5		2099	7353	inactive
CG32591 (GeneID 318104)	SID104198855	4.30e5	1.97e5		27225	4856	inactive
E(spl)mgamma-HLH (GeneID 43151)	SID104196491	6.42e5	1.30e5		31803	9557	inactive
SLC22A (GeneID 40437)	SID104191618	1.02e5	1.36e5		3498	3516	inactive
SLC22A (GeneID 40437)	SID104191619	1.22e5	1.84e5		4501	4840	inactive
ppk24 (GeneID 43702)	SID104194885	1.11e5	74956		3845	1424	inactive
stet (GeneID 38169)	SID104188038	60503	44565		2140	3408	inactive
stet (GeneID 38169)	SID104188075	63632	38163		2429	3334	inactive
Inx3 (GeneID 44266)	SID104194649	1.08e5	1.34e5		1387	3261	inactive
CG6330 (GeneID 43240)	SID104195814	82696	69666		1936	1992	inactive
yellow-d (GeneID 37703)	SID104184381	86535	64342		1991	6423	inactive
CG14062 (GeneID 43389)	SID104194517	84422	91659		3090	2352	inactive
Nubpl (GeneID 35452)	SID104183517	60788	47786		2272	1836	inactive
CG8509 (GeneID 32535)	SID104199901	97105	72962		2701	1936	inactive
Pgant7 (GeneID 32836)	SID104199783	1.03e5	62978		2464	1479	inactive
CrebA (GeneID 39682)	SID104190914	1.08e5	62328		3778	2531	inactive
Or33a (GeneID 34601)	SID104183178	84652	45297		2101	4570	inactive
CG14762 (GeneID 35768)	SID104184865	1.30e5	2.56e5		17363	11092	inactive
CG14762 (GeneID 35768)	SID104186288	64149	40042		1657	3621	inactive
rho-7 (GeneID 36281)	SID104187096	1.01e5	69304		2624	5401	inactive
CG4678 (GeneID 32652)	SID104199703	82555	2.12e5		2816	8274	inactive
CG4678 (GeneID 32652)	SID104199704	56225	3.64e5		2179	13858	inactive
POSH (GeneID 36990)	SID104187291	1.10e5	67361		3392	5317	inactive
Mcm5 (GeneID 41296)	SID104196527	52402	96202		1529	2662	inactive
CG42709 (GeneID 39453)	SID104190069	1.15e5	1.11e5		4837	4649	inactive
TpnC47D (GeneID 36195)	SID104187356	1.22e5	56752		3371	4833	inactive
CG30423 (GeneID 246605)	SID104183805	1.21e5	2.52e5		3149	11013	inactive
CG15601 (GeneID 32509)	SID104199462	60317	1.56e5		2499	7590	inactive
scaf6 (GeneID 3346235)	SID104189867	1.36e5	1.18e5		5637	4528	inactive
scaf6 (GeneID 3346235)	SID104190468	1.27e5			1539	3314	inactive
scaf6 (GeneID 3346235)	SID104190470	66157			476	1120	inactive
ND-B17.2 (GeneID 33443)	SID104180369	1.41e5	1.08e5		3208	2697	inactive
CG3014 (GeneID 40922)	SID104195250	71403	1.11e5		2907	3223	inactive
Iru (GeneID 41080)	SID104194249	1.17e5	74105		4944	3480	inactive
CG15408 (GeneID 33548)	SID104180215	1.04e5	54322		2445	5200	inactive
RpL22-like (GeneID 37684)	SID104184374	78571	83233		1331	7651	inactive
pippin (GeneID 37770)	SID104184281	1.15e5	86592		5026	3703	inactive
CG5139 (GeneID 33309)	SID104180473	1.36e5	1.29e5		3488	3504	inactive
CG17508 (GeneID 49893)	SID104187563	61200	52992		2048	3945	inactive
CG13367 (GeneID 31013)	SID104198277	1.30e5	2.51e5		4843	10649	inactive
CG13367 (GeneID 31013)	SID104198278	1.30e5	2.29e5		4967	9985	inactive
CG5623 (GeneID 41904)	SID104195640	1.45e5	1.17e5		5189	3340	inactive
CG7741 (GeneID 36208)	SID104186827	1.58e5	54480		4196	4149	inactive
MED23 + CG3700	SID104184198	96666	60411		2371	4717	inactive
MED23 + CG3700	SID104184199	59161	38389		2204	1584	inactive
slow (GeneID 38540)	SID104188381	1.44e5	93712		5204	3683	inactive
slow (GeneID 38540)	SID104188382	41365	45235		4416	2681	inactive
CG9646 (GeneID 36918)	SID104187134	76064	68137		2480	4118	inactive
upSET (GeneID 39551)	SID104190843	65664	17622		2070	681	inactive
CG7806 (GeneID 34140)	SID104182863	58346	79798		2227	3181	inactive
